Results reported in paper PMC10102026.

Protein sequences, listed by entry. Tags and fused reporters are not part of them.
UniProt P55060: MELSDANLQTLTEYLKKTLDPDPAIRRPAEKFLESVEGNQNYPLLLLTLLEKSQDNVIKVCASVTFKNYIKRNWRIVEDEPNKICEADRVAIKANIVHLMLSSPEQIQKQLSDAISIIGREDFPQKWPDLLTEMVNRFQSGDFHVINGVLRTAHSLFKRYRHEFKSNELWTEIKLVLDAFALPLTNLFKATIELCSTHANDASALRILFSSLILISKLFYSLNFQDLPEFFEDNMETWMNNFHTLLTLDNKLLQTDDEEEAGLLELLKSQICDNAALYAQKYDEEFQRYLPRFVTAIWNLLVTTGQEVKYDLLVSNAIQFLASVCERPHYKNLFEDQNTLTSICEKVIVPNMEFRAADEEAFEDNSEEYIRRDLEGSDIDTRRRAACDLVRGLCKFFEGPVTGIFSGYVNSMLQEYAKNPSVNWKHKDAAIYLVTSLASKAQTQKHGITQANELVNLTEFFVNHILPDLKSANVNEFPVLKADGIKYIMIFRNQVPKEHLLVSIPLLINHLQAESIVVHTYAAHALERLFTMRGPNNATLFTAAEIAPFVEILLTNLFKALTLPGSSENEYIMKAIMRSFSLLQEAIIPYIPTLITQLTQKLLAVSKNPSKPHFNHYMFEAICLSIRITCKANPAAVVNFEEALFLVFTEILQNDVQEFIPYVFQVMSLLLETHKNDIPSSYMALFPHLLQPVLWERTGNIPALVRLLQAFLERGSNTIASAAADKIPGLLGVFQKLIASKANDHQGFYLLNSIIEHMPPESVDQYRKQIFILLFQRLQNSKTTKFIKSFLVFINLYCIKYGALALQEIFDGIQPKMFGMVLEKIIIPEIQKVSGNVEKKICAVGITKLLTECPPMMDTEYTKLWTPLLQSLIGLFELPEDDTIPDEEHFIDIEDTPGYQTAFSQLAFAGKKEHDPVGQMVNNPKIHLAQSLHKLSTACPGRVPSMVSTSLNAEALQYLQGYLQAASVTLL
UniProt Q96B97: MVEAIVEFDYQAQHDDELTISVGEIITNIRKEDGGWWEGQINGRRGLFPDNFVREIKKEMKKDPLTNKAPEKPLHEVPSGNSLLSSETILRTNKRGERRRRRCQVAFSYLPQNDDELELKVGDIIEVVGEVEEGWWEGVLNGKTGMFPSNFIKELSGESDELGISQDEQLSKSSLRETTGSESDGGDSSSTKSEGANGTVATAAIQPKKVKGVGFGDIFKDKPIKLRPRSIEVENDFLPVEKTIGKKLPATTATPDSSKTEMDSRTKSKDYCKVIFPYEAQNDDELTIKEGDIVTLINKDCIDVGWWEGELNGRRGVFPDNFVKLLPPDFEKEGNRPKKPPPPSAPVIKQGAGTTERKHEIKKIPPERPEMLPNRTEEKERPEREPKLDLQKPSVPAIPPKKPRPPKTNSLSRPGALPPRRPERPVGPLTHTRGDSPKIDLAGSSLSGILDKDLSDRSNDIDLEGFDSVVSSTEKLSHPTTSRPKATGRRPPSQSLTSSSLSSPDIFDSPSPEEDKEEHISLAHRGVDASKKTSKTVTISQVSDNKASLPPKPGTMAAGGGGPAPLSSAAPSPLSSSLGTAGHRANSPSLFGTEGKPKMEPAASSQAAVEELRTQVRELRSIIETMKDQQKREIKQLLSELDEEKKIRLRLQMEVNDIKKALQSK

T1: 3xFLAG-BirA*-NUP37 (UniProt Q8NFH4)
T1 sequence: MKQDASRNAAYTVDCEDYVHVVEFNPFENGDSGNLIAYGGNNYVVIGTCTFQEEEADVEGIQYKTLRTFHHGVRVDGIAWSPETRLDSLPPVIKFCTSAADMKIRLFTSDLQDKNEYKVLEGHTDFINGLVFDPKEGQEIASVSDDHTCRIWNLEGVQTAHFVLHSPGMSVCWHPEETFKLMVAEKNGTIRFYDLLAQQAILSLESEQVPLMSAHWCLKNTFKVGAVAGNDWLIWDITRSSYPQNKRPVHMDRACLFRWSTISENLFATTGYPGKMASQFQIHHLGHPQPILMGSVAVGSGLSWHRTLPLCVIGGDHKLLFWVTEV


Assays:
[1] = biological target: 3xFLAG-BirA*-CSE1L (human) (UniProt P55060); test: proximity labelling; B2B1 overlay cultures expressing inducible BirA*-CSE1L or BirA*-NUP37; 0.5 µM AP21967 24 h, then 50 µM biotin 24 h; RIPA lysis; two-step purification (anti-biotin agarose, then streptavidin beads), SDS-PAGE, mass spectrometry
3xFLAG-BirA*-NUP37 [2] = biological target: T1, 3xFLAG-BirA*-NUP37; test: as above
3xFLAG-BirA*-NUP37 [3] = biological target: T1, 3xFLAG-BirA*-NUP37; test: proximity labelling; B2B1 cells expressing inducible FLAG-tagged BirA*-CSE1L or BirA*-NUP37, ±0.5 µM AP for 24 h before biotinylation for 24 h; anti-biotin immunoprecipitates immunoblotted for the targets; independent samples, n = 3

binding [1]	binding (3xFLAG-BirA*-NUP37 [2])	binding (3xFLAG-BirA*-NUP37 [3])	Molecule
binds	binds	–	EGFR endocytic-trafficking adaptor SH3KBP1 (from UniProt Q96B97 1-665)
–	–	binds	NUP160 (protein, UniProt Q12769 1-1436) MLHLSAAPPAPPPEVTATARPCLCSVGRRGDGGKMAAAGALERSFVELSGAERERPRHFREFTVCSIGTANAVAGAVKYSESAGGFYYVESGKLFSVTRNRFIHWKTSGDTLELMEESLDINLLNNAIRLKFQNCSVLPGGVYVSETQNRVIILMLTNQTVHRLLLPHPSRMYRSELVVDSQMQSIFTDIGKVDFTDPCNYQLIPAVPGISPNSTASTAWLSSDGEALFALPCASGGIFVLKLPPYDIPGMVSVVELKQSSVMQRLLTGWMPTAIRGDQSPSDRPLSLAVHCVEHDAFIFALCQDHKLRMWSYKEQMCLMVADMLEYVPVKKDLRLTAGTGHKLRLAYSPTMGLYLGIYMHAPKRGQFCIFQLVSTESNRYSLDHISSLFTSQETLIDFALTSTDIWALWHDAENQTVVKYINFEHNVAGQWNPVFMQPLPEEEIVIRDDQDPREMYLQSLFTPGQFTNEALCKALQIFCRGTERNLDLSWSELKKEVTLAVENELQGSVTEYEFSQEEFRNLQQEFWCKFYACCLQYQEALSHPLALHLNPHTNMVCLLKKGYLSFLIPSSLVDHLYLLPYENLLTEDETTISDDVDIARDVICLIKCLRLIEESVTVDMSVIMEMSCYNLQSPEKAAEQILEDMITIDVENVMEDICSKLQEIRNPIHAIGLLIREMDYETEVEMEKGFNPAQPLNIRMNLTQLYGSNTAGYIVCRGVHKIASTRFLICRDLLILQQLLMRLGDAVIWGTGQLFQAQQDLLHRTAPLLLSYYLIKWGSECLATDVPLDTLESNLQHLSVLELTDSGALMANRFVSSPQTIVELFFQEVARKHIISHLFSQPKAPLSQTGLNWPEMITAITSYLLQLLWPSNPGCLFLECLMGNCQYVQLQDYIQLLHPWCQVNVGSCRFMLGRCYLVTGEGQKALECFCQAASEVGKEEFLDRLIRSEDGEIVSTPRLQYYDKVLRLLDVIGLPELVIQLATSAITEAGDDWKSQATLRTCIFKHHLDLGHNSQAYEALTQIPDSSRQLDCLRQLVVVLCERSQLQDLVEFPYVNLHNEVVGIIESRARAVDLMTHNYYELLYAFHIYRHNYRKAGTVMFEYGMRLGREVRTLRGLEKQGNCYLAALNCLRLIRPEYAWIVQPVSGAVYDRPGASPKRNHDGECTAAPTNRQIEILELEDLEKECSLARIRLTLAQHDPSAVAVAGSSSAEEMVTLLVQAGLFDTAISLCQTFKLPLTPVFEGLAFKCIKLQFGGEAAQAEAWAWLAANQLSSVITTKESSATDEAWRLLSTYLERYKVQNNLYHHCVINKLLSHGVPLPNWLINSYKKVDAAELLRLYLNYDLLEEAVDLVSEYVDAVLGKGHQYFGIEFPLSATAPMVWLPYSSIDQLLQALGENSANSHNIALSQKILDKLEDYQQKVDKATRDLLYRRTL

Results are given in words; binding and its absence hold for the method and conditions named. In cells and extracts the contact can be indirect. A yes stands for co-enrichment or nearness to the bait. Other partners may have been found. For part of these data: Where a sequence is shown, tags or fusion partners need not be part of it.
